From patent US20230173014A1 (GRANDES VINOS Y VIÑEDOS SA, priority 2021, published 2023)

Assay: peptide synthesis
Details: whole synthesis

Sequence	purity (crude or final not stated)
FKTTDQQTRTTVA (Synthesized peptide P1)	97.8%
LDSPSEGRAPG (Synthesized peptide P5)	96.9%
LDSPSEGRAPGAD (Synthesized peptide P6)	98.5%
NPKLVTIV (Synthesized peptide P2)	99.2%
TVTNPARIA (Synthesized peptide P3)	96.4%

Plain letter strings leave the end groups untold.
